Here are results for 31 molecules from the supplement of paper PMC7238544.

Molecules are shown by their SMILES. Structures can show the parent of a compound that is named as a salt. ± gives the standard deviation of the averaged measurements. Some of the results follow. The data scatter; read single values as rough.

The test system of the assay is hAMSC donor 1. As to the kind of experiment: transfection efficiency (EGFP+ cells / Hoechst count) fold change vs vehicle control (ratio); hAMSC are human adipose-derived mesenchymal stem cells given an EGFP-luciferase plasmid by lipofection; higher = enhanced transfection. The note with it: priming compound concentration 13 µM.
On to `CN(CCOc1ccc(CC2SC(=O)NC2=O)cc1)c1ccccn1` (stereo unspecified) [Rosiglitazone maleate], for which the transfection efficiency came to 1.78 ± 0.16.
As for `C[C@](N)(Cc1ccc(O)cc1)C(=O)O` [alpha-Methyl-L-tyrosine], the transfection efficiency was 1.59 ± 0.43.
`COc1cc(OC)c(C(=O)CCCN2CCCC2)c(OC)c1` [Buflomedil hydrochloride]: the transfection efficiency worked out at 1.1 ± 0.15.
Under `COCCOC(=O)C1=C(C)NC(C)=C(C(=O)OC(C)C)C1c1cccc([N+](=O)[O-])c1` (stereo unspecified) [Nimodipine] stands 1.09 ± 0.19.
On to `O=C(CCCN1CC=C(n2c(=O)[nH]c3ccccc32)CC1)c1ccc(F)cc1` [Droperidol], for which the transfection efficiency is 0.981 ± 0.067.
On to `CN1[C@@H]2CC[C@H]1C[C@@H](OC(=O)c1c[nH]c3ccccc13)C2` [Tropisetron hydrochloride], for which the transfection efficiency was found to be 0.912 ± 0.15.
As for `CN1[C@@H](CC(=O)c2ccccc2)CCC[C@H]1C[C@H](O)c1ccccc1` [Lobeline hydrochloride], the transfection efficiency stood at 0.659 ± 0.05.
Turning to `CN(C)CCCC1(c2ccc(F)cc2)OCc2cc(C#N)ccc21` (stereo unspecified) [Citalopram hydrobromide], the transfection efficiency came out at 0.971 ± 0.38.
Under `CN(C)CCc1c[nH]c2ccc(Cn3cncn3)cc12` [Rizatriptan benzoate] stands 1.63 ± 0.25; under `Nc1ncn([C@@H]2O[C@H](CO)[C@@H](O)[C@H]2O)c(=O)n1` [5-Azacytidine], 1.28 ± 0.12; under `O=C(O)CCc1nc(-c2ccccc2)c(-c2ccccc2)o1` [Oxaprozin], 1.25 ± 0.32.
Consider `CN1CC(=O)N2[C@H](c3ccc4c(c3)OCO4)c3[nH]c4ccccc4c3C[C@@H]2C1=O` [Tadalafil], for which the transfection efficiency was found to be 1.36 ± 0.31.
On to `O=c1c(O[C@@H]2O[C@H](CO)[C@@H](O)[C@H](O)[C@H]2O)c(-c2ccc(O)c(O)c2)oc2cc(O)cc(O)c12` [Isoquercitrin], for which the transfection efficiency was found to be 1.74 ± 0.39.
Consider `CN(C)[C@@H]1C(O)=C(C(N)=O)C(=O)[C@@]2(O)C(O)=C3C(=O)c4c(O)ccc(Cl)c4[C@@H](O)[C@H]3C[C@@H]12` [Demeclocycline], for which the transfection efficiency came out at 0.97 ± 0.13.
Regarding `OCCN1CCN(CCCN2c3ccccc3Sc3ccc(C(F)(F)F)cc32)CC1` [Fluphenazine dihydrochloride], the transfection efficiency was 0.94 ± 0.43.
Turning to `CCN(CC)CCOc1ccc(C(=C(Cl)c2ccccc2)c2ccccc2)cc1` [Clomifene citrate], the transfection efficiency came to 1.2 ± 0.36.
Take `N#Cc1ccc(C(c2ccc(C#N)cc2)n2cncn2)cc1` [Letrozole]: the transfection efficiency was 1.48 ± 0.095.
As for `COc1cc([C@@H]2c3cc4c(cc3[C@@H](O[C@@H]3O[C@@H]5CO[C@@H](C)O[C@H]5[C@H](O)[C@H]3O)[C@H]3COC(=O)[C@H]23)OCO4)cc(OC)c1O` [Etoposide], the transfection efficiency amounted to 1.89 ± 0.71.
On to `C[C@]12C[C@H](O)[C@H]3[C@@H](CCC4=CC(=O)CC[C@@]43C)[C@@H]1CC[C@@H]2C(=O)CO` [Corticosterone], for which the transfection efficiency was determined as 1.19 ± 0.24.
Consider `CCN1CCCC1CNC(=O)c1cc(S(=O)(=O)CC)c(N)cc1OC` (stereo unspecified) [Amisulpride], for which the transfection efficiency was found to be 1.54 ± 0.49.
Turning to `CN(C)CC[C@@H](c1ccc(Br)cc1)c1ccccn1` [Dexbrompheniramine maleate], the transfection efficiency worked out at 1.54 ± 0.45.
In the case of `CC1=C(C/C=C(\C)CCC[C@H](C)CCC[C@H](C)CCCC(C)C)C(=O)c2ccccc2C1=O` [Phylloquinone], the transfection efficiency was determined as 1.12 ± 0.14.
Take `C[C@H](CS)C(=O)N1CCC[C@H]1C(=O)O` [Captopril]: the transfection efficiency was found to be 1.45 ± 0.39.
On to `c1ccc2c(CC3=NCCN3)cccc2c1` [Naphazoline hydrochloride], for which the transfection efficiency was 1 ± 0.32.
`C[C@H]1O[C@@H](O[C@H]2[C@@H](O)C[C@H](O[C@H]3[C@@H](O)C[C@H](O[C@H]4CC[C@@]5(C)[C@H](CC[C@@H]6[C@@H]5C[C@@H](O)[C@]5(C)[C@@H](C7=CC(=O)OC7)CC[C@]65O)C4)O[C@@H]3C)O[C@@H]2C)C[C@H](O)[C@@H]1O` [Digoxin]: the transfection efficiency was determined as 0.553 ± 0.36.
`CC#C[C@]1(O)CC[C@H]2[C@@H]3CCC4=CC(=O)CCC4=C3[C@@H](c3ccc(N(C)C)cc3)C[C@@]21C`: the transfection efficiency is 1.36 ± 0.18.
For the molecule `COc1ccccc1N1CCN(CC(O)COc2cccc3ccccc23)CC1` (stereo unspecified) [Naftopidil], the transfection efficiency was found to be 1.08 ± 0.6.
With `CN1CCN(c2nc3cc(C(F)(F)F)ccc3n3cccc23)CC1`, the transfection efficiency was found to be 0.926 ± 0.49.
In the case of `CC(C)[C@H](N)C(=O)OCCOCn1cnc2c(=O)nc(N)[nH]c21` [Valaciclovir hydrochloride], the transfection efficiency was determined as 0.947 ± 0.3.
For the molecule `O=c1[nH]cc(F)c(=O)[nH]1` [5-Fluorouracil], the transfection efficiency came to 1.25 ± 0.64.
For the molecule `CC1(C)S[C@@H]2[C@H](NC(=O)[C@H](N)c3ccc(O)cc3)C(=O)N2[C@H]1C(=O)O` [Amoxicillin], the transfection efficiency worked out at 0.853 ± 0.3.
